Results are given in words; binding and its absence hold for the method and conditions named. Binding seen in cells or lysates may run through a third protein. Some entries that bind do so weakly or less than the wild type.
Molecular target: T1, Tetraspanin CD9 (bovine (endogenous in cauda epididymal fluid microvesicles)) (UniProt P30932)
T1 sequence: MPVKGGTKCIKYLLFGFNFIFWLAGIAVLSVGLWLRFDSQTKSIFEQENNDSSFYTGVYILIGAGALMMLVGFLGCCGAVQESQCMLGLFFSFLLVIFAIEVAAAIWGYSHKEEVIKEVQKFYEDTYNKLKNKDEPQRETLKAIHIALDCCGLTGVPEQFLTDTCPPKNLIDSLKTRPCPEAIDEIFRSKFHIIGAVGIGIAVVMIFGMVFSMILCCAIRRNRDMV
Assay: co-IP; CD9-positive microvesicles lysed in Brij O10; CD9 immunoprecipitated, western blot for CD26 and CD224; normal mouse IgG as negative control

Protein sequences, listed by entry. Tags and fused reporters are not part of them.
UniProt P81425: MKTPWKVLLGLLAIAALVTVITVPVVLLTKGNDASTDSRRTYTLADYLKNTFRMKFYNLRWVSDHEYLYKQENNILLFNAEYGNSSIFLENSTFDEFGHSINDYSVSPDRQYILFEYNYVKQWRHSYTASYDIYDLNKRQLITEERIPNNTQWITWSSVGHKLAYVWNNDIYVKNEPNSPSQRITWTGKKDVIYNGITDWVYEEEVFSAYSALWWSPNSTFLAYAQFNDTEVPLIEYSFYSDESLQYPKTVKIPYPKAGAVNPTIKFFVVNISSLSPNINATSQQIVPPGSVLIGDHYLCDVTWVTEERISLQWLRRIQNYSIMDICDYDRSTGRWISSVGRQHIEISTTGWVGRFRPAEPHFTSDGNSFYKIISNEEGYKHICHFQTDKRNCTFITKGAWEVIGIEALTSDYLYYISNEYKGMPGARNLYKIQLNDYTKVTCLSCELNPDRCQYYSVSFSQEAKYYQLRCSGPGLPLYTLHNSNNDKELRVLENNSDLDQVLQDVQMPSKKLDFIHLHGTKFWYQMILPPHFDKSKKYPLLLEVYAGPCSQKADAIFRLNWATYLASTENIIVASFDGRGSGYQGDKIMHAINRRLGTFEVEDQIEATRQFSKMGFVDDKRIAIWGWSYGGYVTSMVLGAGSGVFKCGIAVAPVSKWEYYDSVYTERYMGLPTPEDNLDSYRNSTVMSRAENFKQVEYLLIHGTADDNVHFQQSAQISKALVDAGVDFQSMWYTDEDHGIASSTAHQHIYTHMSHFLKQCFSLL

DPP4_BOVIN Dipeptidyl peptidase 4/CD26 (from UniProt P81425 1-765)
binding: binds

— paper PMC3681974
